Measured values taken from US7146204B2, “Method and apparatus for quantitatively evaluating a kidney” (Yeda Research and Development Co., Ltd., priority 2002, dated 2006).

How the values were obtained:
[1] = test system: rat kidney; test: dynamic 23Na MRI of renal sodium distribution after bolus injection of diuretic; format: in vivo; details: dynamic study
Method: Materials and Methods—Animals: Studies were performed on female Lewis rats, 2–4 months old and weighing 250–300 g, that had free access to food and water. […] All animal protocols and maintenance procedures were in accordance with the guidelines of the Committee on Animals of the Weizmann Institute of Science, and were approved by this Committee. Diuretics: […] Only one diuretic was injected into each rat. […] Image analysis: Analysis of the kidney images was performed on selected regions of interest (ROIs) in the outer, median and inner parts of the kidney, representing the cortex, outer and inner medulla, respectively. The ROIs were defined on the corresponding coronal proton image recorded prior to the sodium images, at the same spatial resolution. The average digitized pixel intensity for each ROI was measured, and the sodium gradient was assessed by averaging the ratio of the sodium signal intensity between the inner and the outer medulla, and between the inner medulla and the cortex. The results present average values for the number of measured kidneys±standard error. […] In this analysis, the signal intensity in each pixel was measured from the cortex to the inner medulla along the corticomedullary axis. This yielded a graph of pixel signal intensity versus the distance of the pixel from the cortex. […]

[2] = test system: rat kidney; test: steady state diuresis 23Na MRI of corticomedullary sodium gradient; format: in vivo; details: diuretic steady state
Method: Materials and Methods—Animals: Studies were performed on female Lewis rats, 2–4 months old and weighing 250–300 g, that had free access to food and water. Before MRI scanning, the rats were anesthetized by an intraperitoneal injection of sodium pentobarbital at a dosage of 0.04 mg/g body wt. All animal protocols and maintenance procedures were in accordance with the guidelines of the Committee on Animals of the Weizmann Institute of Science, and were approved by this Committee.
Mannitol solution (20%, 1 ml) and saline solution (0.9% NaCl, 1 ml) were injected as a bolus into the tail vein. Only one diuretic was injected into each rat.
In vivo MRI: ^1H and ^23Na spectra and images were recorded at 200 and 53 MHz, respectively with a 4.7 T Biospec spectrometer (Bruker, Rheinstetten, Germany) using a home-built 3 cm double-tuned surface coil. […] 3D ^1H gradient echo images were recorded to localize the exact kidney position, using TE/TR of 6/30 ms FOV of 12×12×3.2 cm and a matrix of 256×256×32. For defining the regions of interest (ROI), 3D ^1H images were recorded with the same spatial resolution as that of the sodium images.
In the “steady state” studies, sodium images were recorded prior to injection of the diuretic (control measurement) and fifteen minutes after its injection. […]

NS(=O)(=O)c1cc(C(=O)O)c(NCc2ccco2)cc1Cl [furosemide]
total increase in sodium concentration in the cortex [1]: 27±1%
sodium concentration in the outer medulla compared to control [2]: decreased compared to control
